# Results are given in words; binding and its absence hold for the method and conditions named. In cells and extracts the contact can be indirect. Here binding means that the protein was enriched with, or labelled near, the bait; the list need not be complete.
# Amino acid sequences for entries named in this document (tags omitted). Residues count along the entry.
# UniProt P02545, residues 1-646: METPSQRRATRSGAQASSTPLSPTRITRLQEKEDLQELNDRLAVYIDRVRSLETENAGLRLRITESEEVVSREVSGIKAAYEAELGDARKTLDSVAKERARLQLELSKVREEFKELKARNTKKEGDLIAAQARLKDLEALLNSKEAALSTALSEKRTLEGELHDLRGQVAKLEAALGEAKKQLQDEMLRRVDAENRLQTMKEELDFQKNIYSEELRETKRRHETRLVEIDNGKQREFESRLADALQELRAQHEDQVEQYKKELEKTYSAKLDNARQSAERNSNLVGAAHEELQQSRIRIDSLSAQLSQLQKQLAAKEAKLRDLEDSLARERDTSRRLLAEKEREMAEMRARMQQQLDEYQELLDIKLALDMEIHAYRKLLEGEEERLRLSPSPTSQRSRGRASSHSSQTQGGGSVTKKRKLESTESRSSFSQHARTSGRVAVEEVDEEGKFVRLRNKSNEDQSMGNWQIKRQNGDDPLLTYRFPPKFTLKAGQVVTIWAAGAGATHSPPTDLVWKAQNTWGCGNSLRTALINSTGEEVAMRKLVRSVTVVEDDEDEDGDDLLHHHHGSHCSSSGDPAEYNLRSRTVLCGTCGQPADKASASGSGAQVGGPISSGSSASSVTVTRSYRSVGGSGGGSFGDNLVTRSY
# UniProt P49336: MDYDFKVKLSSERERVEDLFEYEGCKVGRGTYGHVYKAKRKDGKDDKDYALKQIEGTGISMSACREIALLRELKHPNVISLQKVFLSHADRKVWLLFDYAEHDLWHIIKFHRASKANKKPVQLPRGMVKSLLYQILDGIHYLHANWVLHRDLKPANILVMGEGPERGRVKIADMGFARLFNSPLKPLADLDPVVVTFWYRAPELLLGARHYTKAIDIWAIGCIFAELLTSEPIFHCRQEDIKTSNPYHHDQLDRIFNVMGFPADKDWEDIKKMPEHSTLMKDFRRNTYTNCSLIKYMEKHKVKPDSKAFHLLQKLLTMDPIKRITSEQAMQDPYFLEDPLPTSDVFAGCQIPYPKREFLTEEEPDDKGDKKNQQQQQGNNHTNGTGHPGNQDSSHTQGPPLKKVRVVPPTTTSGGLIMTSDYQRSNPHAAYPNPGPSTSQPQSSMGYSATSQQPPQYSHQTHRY
# UniProt Q14739: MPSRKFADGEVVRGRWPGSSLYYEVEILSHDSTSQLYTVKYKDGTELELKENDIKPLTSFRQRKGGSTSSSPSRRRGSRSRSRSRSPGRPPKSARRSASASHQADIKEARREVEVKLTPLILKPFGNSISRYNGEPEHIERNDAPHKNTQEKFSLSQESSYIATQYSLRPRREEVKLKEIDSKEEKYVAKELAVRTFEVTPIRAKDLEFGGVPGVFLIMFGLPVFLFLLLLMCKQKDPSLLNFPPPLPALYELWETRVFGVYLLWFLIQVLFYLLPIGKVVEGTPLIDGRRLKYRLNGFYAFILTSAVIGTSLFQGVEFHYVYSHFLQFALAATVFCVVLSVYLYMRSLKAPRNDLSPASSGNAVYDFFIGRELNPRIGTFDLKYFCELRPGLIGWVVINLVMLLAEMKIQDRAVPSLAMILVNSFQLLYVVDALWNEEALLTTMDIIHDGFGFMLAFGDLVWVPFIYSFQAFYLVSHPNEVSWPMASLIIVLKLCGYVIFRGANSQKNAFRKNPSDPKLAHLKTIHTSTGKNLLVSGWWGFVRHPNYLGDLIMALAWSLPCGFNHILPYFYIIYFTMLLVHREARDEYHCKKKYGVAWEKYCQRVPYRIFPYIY
# UniProt P12270: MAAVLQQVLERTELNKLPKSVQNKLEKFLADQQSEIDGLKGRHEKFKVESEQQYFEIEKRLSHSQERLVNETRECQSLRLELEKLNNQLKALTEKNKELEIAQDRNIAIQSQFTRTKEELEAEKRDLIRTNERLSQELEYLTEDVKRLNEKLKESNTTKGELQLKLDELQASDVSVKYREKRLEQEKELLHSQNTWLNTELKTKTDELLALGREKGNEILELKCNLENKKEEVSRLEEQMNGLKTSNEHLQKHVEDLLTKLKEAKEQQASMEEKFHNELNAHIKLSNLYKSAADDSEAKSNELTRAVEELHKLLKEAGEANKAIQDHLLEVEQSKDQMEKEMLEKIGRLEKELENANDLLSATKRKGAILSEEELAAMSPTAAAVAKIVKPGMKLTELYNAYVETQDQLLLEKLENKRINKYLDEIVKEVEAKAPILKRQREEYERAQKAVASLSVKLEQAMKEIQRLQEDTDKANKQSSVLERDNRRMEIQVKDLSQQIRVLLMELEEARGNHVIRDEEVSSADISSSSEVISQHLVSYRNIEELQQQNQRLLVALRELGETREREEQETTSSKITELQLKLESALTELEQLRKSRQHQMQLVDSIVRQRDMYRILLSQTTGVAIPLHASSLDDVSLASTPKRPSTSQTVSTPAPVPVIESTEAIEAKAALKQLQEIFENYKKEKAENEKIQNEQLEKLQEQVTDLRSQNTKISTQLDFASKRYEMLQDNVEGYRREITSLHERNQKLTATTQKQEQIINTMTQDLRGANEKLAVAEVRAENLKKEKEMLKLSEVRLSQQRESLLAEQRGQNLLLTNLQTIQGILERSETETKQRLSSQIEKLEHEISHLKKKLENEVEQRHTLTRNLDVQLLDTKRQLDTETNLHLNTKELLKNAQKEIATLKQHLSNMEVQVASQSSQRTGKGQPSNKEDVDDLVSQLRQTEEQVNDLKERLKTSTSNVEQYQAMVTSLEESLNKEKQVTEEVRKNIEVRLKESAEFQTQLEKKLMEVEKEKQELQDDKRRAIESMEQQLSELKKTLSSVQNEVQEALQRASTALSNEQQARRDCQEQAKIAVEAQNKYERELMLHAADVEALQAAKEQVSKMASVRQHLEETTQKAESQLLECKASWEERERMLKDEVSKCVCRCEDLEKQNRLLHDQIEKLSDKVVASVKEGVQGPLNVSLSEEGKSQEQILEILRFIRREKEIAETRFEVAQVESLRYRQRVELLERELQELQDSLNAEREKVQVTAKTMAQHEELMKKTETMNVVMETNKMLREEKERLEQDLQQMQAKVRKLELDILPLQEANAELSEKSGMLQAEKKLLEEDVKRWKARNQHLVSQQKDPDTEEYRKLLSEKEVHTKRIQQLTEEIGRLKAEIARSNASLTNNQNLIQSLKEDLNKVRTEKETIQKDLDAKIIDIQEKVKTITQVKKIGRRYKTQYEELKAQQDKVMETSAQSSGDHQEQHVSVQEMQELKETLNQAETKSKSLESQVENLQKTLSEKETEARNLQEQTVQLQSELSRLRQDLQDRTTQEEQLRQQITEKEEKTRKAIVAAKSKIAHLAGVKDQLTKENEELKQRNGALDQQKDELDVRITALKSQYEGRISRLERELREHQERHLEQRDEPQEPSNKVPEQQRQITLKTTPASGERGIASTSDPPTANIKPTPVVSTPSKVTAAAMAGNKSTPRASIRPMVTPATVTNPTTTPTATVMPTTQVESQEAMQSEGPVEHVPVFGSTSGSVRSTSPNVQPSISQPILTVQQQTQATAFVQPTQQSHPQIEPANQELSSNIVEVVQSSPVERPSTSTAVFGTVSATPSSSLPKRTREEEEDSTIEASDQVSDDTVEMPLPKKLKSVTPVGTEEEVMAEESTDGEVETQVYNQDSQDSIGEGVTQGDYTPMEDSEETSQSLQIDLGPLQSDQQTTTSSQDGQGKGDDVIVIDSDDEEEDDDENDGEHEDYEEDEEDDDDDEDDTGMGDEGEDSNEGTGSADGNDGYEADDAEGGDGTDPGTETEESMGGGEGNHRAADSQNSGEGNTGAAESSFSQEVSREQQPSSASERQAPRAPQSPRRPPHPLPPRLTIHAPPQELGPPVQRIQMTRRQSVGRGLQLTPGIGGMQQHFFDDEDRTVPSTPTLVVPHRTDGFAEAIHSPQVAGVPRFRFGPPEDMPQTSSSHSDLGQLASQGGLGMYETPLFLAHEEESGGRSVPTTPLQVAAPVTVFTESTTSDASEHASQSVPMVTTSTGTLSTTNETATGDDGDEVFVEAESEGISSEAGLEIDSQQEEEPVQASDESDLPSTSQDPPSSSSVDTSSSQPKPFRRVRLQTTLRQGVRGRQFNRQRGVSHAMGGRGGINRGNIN
# UniProt P52294: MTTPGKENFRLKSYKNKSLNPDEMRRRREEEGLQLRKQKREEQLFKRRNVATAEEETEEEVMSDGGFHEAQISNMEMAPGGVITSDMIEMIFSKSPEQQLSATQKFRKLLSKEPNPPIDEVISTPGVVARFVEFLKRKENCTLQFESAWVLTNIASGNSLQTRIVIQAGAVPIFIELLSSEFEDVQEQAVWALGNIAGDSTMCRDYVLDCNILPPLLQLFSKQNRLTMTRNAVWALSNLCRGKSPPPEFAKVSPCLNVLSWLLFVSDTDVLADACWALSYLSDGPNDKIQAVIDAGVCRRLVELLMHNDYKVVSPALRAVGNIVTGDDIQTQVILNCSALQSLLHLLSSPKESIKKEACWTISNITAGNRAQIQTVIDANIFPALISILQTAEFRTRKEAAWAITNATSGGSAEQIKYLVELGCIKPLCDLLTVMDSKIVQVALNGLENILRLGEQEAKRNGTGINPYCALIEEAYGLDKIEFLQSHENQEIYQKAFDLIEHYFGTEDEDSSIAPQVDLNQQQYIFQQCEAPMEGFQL
# Columns and labels:
# [1] = molecular target: Prelamin-A/C (human) (UniProt P02545); experiment: proximity labelling; BioID: MAC-tagged bait in stable Flp-In T-REx 293 cells, tetracycline and 50 uM biotin 24 h; lysis buffer 2 (as buffer 1 with 0.1% SDS), sonication, benzonase; biotinylated proteins on Strep-Tactin beads; LC-MS; SAINT and CRAPome filter
# [2] = molecular target: Prelamin-A/C (human) (UniProt P02545); experiment: affinity purification with mass spectrometry; MAC-tagged bait in stable Flp-In T-REx 293 cells, 1 ug/ml tetracycline 24 h, no biotin; lysis buffer 1 (0.5% IGEPAL, 50 mM Hepes pH 8.0, 150 mM NaCl, 50 mM NaF, 5 mM EDTA); single-step Strep-Tactin beads, elution with 0.5 mM biotin; LC-MS; SAINT score >= 0.73 and CRAPome filter against MAC-GFP controls
# [3] = molecular target: mediator of RNA polymerase II transcription subunit 13 (human) (UniProt Q9UHV7); experiment: affinity purification with mass spectrometry + proximity labelling; bait-normalised prey PSM values of AP-MS and of BioID of the same MAC-tagged bait integrated to a relative distance between bait and prey
# [4] = molecular target: cyclin-dependent kinase (CDK) 8 (human) (UniProt P49336); experiment: as above
Molecule,binding [1],binding [2],binding [3],binding [4]
importin subunit alpha IMA7 (from UniProt O60684 1-536),binds,binds,,
lamin-B receptor (from UniProt Q14739 1-615),binds,binds,,
nucleoprotein TPR (from UniProt P12270 1-2363),binds,binds,,
importin subunit alpha IMA5 (from UniProt P52294 1-538),binds,binds,,
"LMNB2 (protein, UniProt Q03252 1-620) MSPPSPGRRREQRRPRAAATMATPLPGRAGGPATPLSPTRLSRLQEKEELRELNDRLAHYIDRVRALELENDRLLLKISEKEEVTTREVSGIKALYESELADARRVLDETARERARLQIEIGKLRAELDEVNKSAKKREGELTVAQGRVKDLESLFHRSEVELAAALSDKRGLESDVAELRAQLAKAEDGHAVAKKQLEKETLMRVDLENRCQSLQEELDFRKSVFEEEVRETRRRHERRLVEVDSSRQQEYDFKMAQALEELRSQHDEQVRLYKLELEQTYQAKLDSAKLSSDQNDKAASAAREELKEARMRLESLSYQLSGLQKQASAAEDRIRELEEAMAGERDKFRKMLDAKEQEMTEMRDVMQQQLAEYQELLDVKLALDMEINAYRKLLEGEEERLKLSPSPSSRVTVSRATSSSSGSLSATGRLGRSKRKRLEVEEPLGSGPSVLGTGTGGSGGFHLAQQASASGSVSIEEIDLEGKFVQLKNNSDKDQSLGNWRIKRQVLEGEEIAYKFTPKYILRAGQMVTVWAAGAGVAHSPPSTLVWKGQSSWGTGESFRTVLVNADGEEVAMRTVKKSSVMRENENGEEEEEEAEFGEEDLFHQQGDPRTTSRGCYVM",binds,binds,,
"lamina-associated polypeptide (LAP)2A (protein, UniProt P42166 1-694) MPEFLEDPSVLTKDKLKSELVANNVTLPAGEQRKDVYVQLYLQHLTARNRPPLPAGTNSKGPPDFSSDEEREPTPVLGSGAAAAGRSRAAVGRKATKKTDKPRQEDKDDLDVTELTNEDLLDQLVKYGVNPGPIVGTTRKLYEKKLLKLREQGTESRSSTPLPTISSSAENTRQNGSNDSDRYSDNEEGKKKEHKKVKSTRDIVPFSELGTTPSGGGFFQGISFPEISTRPPLGSTELQAAKKVHTSKGDLPREPLVATNLPGRGQLQKLASERNLFISCKSSHDRCLEKSSSSSSQPEHSAMLVSTAASPSLIKETTTGYYKDIVENICGREKSGIQPLCPERSHISDQSPLSSKRKALEESESSQLISPPLAQAIRDYVNSLLVQGGVGSLPGTSNSMPPLDVENIQKRIDQSKFQETEFLSPPRKVPRLSEKSVEERDSGSFVAFQNIPGSELMSSFAKTVVSHSLTTLGLEVAKQSQHDKIDASELSFPFHESILKVIEEEWQQVDRQLPSLACKYPVSSREATQILSVPKVDDEILGFISEATPLGGIQAASTESCNQQLDLALCRAYEAAASALQIATHTAFVAKAMQADISQAAQILSSDPSRTHQALGILSKTYDAASYICEAAFDEVKMAAHTMGNATVGRRYLWLKDCKINLASKNKLASTPFKGGTLFGGEVCKVIKKRGNKH",binds,binds,,
"LAP2B (protein, UniProt P42167 1-454) MPEFLEDPSVLTKDKLKSELVANNVTLPAGEQRKDVYVQLYLQHLTARNRPPLPAGTNSKGPPDFSSDEEREPTPVLGSGAAAAGRSRAAVGRKATKKTDKPRQEDKDDLDVTELTNEDLLDQLVKYGVNPGPIVGTTRKLYEKKLLKLREQGTESRSSTPLPTISSSAENTRQNGSNDSDRYSDNEEDSKIELKLEKREPLKGRAKTPVTLKQRRVEHNQSYSQAGITETEWTSGSSKGGPLQALTRESTRGSRRTPRKRVETSEHFRIDGPVISESTPIAETIMASSNESLVVNRVTGNFKHASPILPITEFSDIPRRAPKKPLTRAEVGEKTEERRVERDILKEMFPYEASTPTGISASCRRPIKGAAGRPLELSDFRMEESFSSKYVPKYVPLADVKSEKTKKGRSIPVWIKILLFVVVAVFLFLVYQAMETNQVNPFSNFLHVDPRKSN",binds,binds,,
"MED23 (protein, UniProt Q9ULK4 1-1368) METQLQSIFEEVVKTEVIEEAFPGMFMDTPEDEKTKLISCLGAFRQFWGGLSQESHEQCIQWIVKFIHGQHSPKRISFLYDCLAMAVETGLLPPRLVCESLINSDTLEWERTQLWALTFKLVRKIIGGVDYKGVRDLLKVILEKILTIPNTVSSAVVQQLLAAREVIAYILERNACLLPAYFAVTEIRKLYPEGKLPHWLLGNLVSDFVDTFRPTARINSICGRCSLLPVVNNSGAICNSWKLDPATLRFPLKGLLPYDKDLFEPQTALLRYVLEQPYSRDMVCNMLGLNKQHKQRCPVLEDQLVDLVVYAMERSETEEKFDDGGTSQLLWQHLSSQLIFFVLFQFASFPHMVLSLHQKLAGRGLIKGRDHLMWVLLQFISGSIQKNALADFLPVMKLFDLLYPEKEYIPVPDINKPQSTHAFAMTCIWIHLNRKAQNDNSKLQIPIPHSLRLHHEFLQQSLRNKSLQMNDYKIALLCNAYSTNSECFTLPMGALVETIYGNGIMRIPLPGTNCMASGSITPLPMNLLDSLTVHAKMSLIHSIATRVIKLAHAKSSVALAPALVETYSRLLVYMEIESLGIKGFISQLLPTVFKSHAWGILHTLLEMFSYRMHHIQPHYRVQLLSHLHTLAAVAQTNQNQLHLCVESTALRLITALGSSEVQPQFTRFLSDPKTVLSAESEELNRALILTLARATHVTDFFTGSDSIQGTWCKDILQTIMSFTPHNWASHTLSCFPGPLQAFFKQNNVPQESRFNLKKNVEEEYRKWKSMSNENDIITHFSMQGSPPLFLCLLWKMLLETDHINQIGYRVLERIGARALVAHVRTFADFLVYEFSTSAGGQQLNKCIEILNDMVWKYNIVTLDRLILCLAMRSHEGNEAQVCYFIIQLLLLKPNDFRNRVSDFVKENSPEHWLQNDWHTKHMNYHKKYPEKLYFEGLAEQVDPPVQIQSPYLPIYFGNVCLRFLPVFDIVIHRFLELLPVSKSLETLLDHLGGLYKFHDRPVTYLYNTLHYYEMHLRDRAFLKRKLVHAIIGSLKDNRPQGWCLSDTYLKCAMNAREENPWVPDDTYYCRLIGRLVDTMAGKSPGPFPNCDWRFNEFPNPAAHALHVTCVELMALAVSGKEVGNALLNVVLKSQPLVPRENITAWMNAIGLIITALPEPYWIVLHDRIVSVISSPSLTSETEWVGYPFRLFDFTACHQSYSEMSCSYTLALAHAVWHHSSIGQLSLIPKFLTEVLLPIVKTEFQLLYVYHLVGPFLQRFQQERTRCMIEIGVAFYDMLLNVDQCSTHLNYMDPICDFLYHMKYMFTGDSVKEQVEKIICNLKPALKLRLRFITHISKMEPAAVPPQAMNSGSPAPQSNQVPVSLPVTQ",,,binds,binds
"MED17 (protein, UniProt Q9NVC6 1-651) MSGVRAVRISIESACEKQVHEVGLDGTETYLPPLSMSQNLARLAQRIDFSQGSGSEEEEAAGTEGDAQEWPGAGSSADQDDEEGVVKFQPSLWPWDSVRNNLRSALTEMCVLYDVLSIVRDKKFMTLDPVSQDALPPKQNPQTLQLISKKKSLAGAAQILLKGAERLTKSVTENQENKLQRDFNSELLRLRQHWKLRKVGDKILGDLSYRSAGSLFPHHGTFEVIKNTDLDLDKKIPEDYCPLDVQIPSDLEGSAYIKVSIQKQAPDIGDLGTVNLFKRPLPKSKPGSPHWQTKLEAAQNVLLCKEIFAQLSREAVQIKSQVPHIVVKNQIISQPFPSLQLSISLCHSSNDKKSQKFATEKQCPEDHLYVLEHNLHLLIREFHKQTLSSIMMPHPASAPFGHKRMRLSGPQAFDKNEINSLQSSEGLLEKIIKQAKHIFLRSRAAATIDSLASRIEDPQIQAHWSNINDVYESSVKVLITSQGYEQICKSIQLQLNIGVEQIRVVHRDGRVITLSYQEQELQDFLLSQMSQHQVHAVQQLAKVMGWQVLSFSNHVGLGPIESIGNASAITVASPSGDYAISVRNGPESGSKIMVQFPRNQCKDLPKSDVLQDNKWSHLRGPFKEVQWNKMEGRNFVYKMELLMSALSPCLL",,,binds,binds

# Source: article PMC5864832
